The text below walks through data of article doi:10.1101/2023.08.16.553474.

Amino acid sequences for entries named in this document (tags omitted).
UniProt P04198: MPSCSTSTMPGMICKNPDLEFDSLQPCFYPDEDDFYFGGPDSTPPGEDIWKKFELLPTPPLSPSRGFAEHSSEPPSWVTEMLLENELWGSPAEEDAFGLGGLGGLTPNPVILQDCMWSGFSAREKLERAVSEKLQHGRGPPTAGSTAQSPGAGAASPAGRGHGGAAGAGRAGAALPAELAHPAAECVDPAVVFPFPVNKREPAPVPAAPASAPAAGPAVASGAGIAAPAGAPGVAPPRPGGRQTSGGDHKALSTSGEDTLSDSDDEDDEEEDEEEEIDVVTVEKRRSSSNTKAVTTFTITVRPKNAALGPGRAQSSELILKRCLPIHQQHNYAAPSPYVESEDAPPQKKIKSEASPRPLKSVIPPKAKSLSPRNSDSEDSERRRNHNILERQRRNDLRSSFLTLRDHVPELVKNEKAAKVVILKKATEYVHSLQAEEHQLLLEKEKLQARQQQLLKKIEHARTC
UniProt P61244: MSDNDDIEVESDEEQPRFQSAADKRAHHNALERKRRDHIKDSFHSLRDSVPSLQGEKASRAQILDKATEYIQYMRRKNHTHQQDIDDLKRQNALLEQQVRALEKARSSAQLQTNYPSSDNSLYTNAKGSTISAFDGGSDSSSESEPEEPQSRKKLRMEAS
UniProt Q02880: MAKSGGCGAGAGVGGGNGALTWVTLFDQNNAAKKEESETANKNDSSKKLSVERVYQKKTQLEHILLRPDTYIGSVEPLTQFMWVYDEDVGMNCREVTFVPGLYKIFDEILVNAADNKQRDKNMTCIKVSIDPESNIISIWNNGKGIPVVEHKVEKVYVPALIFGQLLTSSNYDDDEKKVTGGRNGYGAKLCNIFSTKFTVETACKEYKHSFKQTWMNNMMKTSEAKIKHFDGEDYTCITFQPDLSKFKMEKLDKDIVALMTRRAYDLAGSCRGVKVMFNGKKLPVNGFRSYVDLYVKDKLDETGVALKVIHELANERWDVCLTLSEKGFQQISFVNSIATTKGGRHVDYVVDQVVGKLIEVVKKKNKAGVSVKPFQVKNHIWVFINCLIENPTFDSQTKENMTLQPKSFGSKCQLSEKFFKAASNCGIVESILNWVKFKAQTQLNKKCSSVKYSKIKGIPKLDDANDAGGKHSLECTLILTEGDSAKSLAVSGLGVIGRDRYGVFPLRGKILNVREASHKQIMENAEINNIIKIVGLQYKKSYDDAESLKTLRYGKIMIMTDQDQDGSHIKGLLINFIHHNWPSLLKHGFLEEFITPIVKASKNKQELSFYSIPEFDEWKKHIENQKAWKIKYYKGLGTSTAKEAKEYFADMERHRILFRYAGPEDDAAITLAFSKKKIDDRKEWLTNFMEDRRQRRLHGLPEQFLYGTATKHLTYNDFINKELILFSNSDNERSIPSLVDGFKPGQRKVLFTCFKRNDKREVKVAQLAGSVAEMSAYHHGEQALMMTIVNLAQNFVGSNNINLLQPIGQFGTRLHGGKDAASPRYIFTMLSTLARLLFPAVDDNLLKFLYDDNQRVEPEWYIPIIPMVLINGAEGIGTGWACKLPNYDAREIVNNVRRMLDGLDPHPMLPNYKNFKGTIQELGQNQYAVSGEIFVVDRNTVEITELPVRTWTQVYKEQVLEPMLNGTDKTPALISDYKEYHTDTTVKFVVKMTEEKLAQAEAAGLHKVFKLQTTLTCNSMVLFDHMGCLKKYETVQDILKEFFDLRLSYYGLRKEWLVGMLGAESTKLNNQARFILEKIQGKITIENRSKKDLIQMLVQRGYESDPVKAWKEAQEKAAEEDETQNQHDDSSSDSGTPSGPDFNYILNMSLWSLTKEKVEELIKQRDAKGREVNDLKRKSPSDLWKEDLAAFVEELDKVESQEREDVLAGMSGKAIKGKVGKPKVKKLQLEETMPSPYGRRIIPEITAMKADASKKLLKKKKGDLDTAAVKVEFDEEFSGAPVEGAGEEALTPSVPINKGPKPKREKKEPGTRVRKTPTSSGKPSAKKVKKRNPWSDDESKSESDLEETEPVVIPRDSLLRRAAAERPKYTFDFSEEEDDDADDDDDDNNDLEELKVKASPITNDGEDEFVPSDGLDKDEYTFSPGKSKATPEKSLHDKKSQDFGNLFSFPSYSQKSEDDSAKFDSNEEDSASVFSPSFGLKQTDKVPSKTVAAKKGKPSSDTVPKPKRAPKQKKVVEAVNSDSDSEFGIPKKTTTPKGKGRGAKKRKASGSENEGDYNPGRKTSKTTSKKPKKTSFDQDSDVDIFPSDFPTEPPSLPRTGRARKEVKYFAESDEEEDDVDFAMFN
UniProt Q9Y4A5: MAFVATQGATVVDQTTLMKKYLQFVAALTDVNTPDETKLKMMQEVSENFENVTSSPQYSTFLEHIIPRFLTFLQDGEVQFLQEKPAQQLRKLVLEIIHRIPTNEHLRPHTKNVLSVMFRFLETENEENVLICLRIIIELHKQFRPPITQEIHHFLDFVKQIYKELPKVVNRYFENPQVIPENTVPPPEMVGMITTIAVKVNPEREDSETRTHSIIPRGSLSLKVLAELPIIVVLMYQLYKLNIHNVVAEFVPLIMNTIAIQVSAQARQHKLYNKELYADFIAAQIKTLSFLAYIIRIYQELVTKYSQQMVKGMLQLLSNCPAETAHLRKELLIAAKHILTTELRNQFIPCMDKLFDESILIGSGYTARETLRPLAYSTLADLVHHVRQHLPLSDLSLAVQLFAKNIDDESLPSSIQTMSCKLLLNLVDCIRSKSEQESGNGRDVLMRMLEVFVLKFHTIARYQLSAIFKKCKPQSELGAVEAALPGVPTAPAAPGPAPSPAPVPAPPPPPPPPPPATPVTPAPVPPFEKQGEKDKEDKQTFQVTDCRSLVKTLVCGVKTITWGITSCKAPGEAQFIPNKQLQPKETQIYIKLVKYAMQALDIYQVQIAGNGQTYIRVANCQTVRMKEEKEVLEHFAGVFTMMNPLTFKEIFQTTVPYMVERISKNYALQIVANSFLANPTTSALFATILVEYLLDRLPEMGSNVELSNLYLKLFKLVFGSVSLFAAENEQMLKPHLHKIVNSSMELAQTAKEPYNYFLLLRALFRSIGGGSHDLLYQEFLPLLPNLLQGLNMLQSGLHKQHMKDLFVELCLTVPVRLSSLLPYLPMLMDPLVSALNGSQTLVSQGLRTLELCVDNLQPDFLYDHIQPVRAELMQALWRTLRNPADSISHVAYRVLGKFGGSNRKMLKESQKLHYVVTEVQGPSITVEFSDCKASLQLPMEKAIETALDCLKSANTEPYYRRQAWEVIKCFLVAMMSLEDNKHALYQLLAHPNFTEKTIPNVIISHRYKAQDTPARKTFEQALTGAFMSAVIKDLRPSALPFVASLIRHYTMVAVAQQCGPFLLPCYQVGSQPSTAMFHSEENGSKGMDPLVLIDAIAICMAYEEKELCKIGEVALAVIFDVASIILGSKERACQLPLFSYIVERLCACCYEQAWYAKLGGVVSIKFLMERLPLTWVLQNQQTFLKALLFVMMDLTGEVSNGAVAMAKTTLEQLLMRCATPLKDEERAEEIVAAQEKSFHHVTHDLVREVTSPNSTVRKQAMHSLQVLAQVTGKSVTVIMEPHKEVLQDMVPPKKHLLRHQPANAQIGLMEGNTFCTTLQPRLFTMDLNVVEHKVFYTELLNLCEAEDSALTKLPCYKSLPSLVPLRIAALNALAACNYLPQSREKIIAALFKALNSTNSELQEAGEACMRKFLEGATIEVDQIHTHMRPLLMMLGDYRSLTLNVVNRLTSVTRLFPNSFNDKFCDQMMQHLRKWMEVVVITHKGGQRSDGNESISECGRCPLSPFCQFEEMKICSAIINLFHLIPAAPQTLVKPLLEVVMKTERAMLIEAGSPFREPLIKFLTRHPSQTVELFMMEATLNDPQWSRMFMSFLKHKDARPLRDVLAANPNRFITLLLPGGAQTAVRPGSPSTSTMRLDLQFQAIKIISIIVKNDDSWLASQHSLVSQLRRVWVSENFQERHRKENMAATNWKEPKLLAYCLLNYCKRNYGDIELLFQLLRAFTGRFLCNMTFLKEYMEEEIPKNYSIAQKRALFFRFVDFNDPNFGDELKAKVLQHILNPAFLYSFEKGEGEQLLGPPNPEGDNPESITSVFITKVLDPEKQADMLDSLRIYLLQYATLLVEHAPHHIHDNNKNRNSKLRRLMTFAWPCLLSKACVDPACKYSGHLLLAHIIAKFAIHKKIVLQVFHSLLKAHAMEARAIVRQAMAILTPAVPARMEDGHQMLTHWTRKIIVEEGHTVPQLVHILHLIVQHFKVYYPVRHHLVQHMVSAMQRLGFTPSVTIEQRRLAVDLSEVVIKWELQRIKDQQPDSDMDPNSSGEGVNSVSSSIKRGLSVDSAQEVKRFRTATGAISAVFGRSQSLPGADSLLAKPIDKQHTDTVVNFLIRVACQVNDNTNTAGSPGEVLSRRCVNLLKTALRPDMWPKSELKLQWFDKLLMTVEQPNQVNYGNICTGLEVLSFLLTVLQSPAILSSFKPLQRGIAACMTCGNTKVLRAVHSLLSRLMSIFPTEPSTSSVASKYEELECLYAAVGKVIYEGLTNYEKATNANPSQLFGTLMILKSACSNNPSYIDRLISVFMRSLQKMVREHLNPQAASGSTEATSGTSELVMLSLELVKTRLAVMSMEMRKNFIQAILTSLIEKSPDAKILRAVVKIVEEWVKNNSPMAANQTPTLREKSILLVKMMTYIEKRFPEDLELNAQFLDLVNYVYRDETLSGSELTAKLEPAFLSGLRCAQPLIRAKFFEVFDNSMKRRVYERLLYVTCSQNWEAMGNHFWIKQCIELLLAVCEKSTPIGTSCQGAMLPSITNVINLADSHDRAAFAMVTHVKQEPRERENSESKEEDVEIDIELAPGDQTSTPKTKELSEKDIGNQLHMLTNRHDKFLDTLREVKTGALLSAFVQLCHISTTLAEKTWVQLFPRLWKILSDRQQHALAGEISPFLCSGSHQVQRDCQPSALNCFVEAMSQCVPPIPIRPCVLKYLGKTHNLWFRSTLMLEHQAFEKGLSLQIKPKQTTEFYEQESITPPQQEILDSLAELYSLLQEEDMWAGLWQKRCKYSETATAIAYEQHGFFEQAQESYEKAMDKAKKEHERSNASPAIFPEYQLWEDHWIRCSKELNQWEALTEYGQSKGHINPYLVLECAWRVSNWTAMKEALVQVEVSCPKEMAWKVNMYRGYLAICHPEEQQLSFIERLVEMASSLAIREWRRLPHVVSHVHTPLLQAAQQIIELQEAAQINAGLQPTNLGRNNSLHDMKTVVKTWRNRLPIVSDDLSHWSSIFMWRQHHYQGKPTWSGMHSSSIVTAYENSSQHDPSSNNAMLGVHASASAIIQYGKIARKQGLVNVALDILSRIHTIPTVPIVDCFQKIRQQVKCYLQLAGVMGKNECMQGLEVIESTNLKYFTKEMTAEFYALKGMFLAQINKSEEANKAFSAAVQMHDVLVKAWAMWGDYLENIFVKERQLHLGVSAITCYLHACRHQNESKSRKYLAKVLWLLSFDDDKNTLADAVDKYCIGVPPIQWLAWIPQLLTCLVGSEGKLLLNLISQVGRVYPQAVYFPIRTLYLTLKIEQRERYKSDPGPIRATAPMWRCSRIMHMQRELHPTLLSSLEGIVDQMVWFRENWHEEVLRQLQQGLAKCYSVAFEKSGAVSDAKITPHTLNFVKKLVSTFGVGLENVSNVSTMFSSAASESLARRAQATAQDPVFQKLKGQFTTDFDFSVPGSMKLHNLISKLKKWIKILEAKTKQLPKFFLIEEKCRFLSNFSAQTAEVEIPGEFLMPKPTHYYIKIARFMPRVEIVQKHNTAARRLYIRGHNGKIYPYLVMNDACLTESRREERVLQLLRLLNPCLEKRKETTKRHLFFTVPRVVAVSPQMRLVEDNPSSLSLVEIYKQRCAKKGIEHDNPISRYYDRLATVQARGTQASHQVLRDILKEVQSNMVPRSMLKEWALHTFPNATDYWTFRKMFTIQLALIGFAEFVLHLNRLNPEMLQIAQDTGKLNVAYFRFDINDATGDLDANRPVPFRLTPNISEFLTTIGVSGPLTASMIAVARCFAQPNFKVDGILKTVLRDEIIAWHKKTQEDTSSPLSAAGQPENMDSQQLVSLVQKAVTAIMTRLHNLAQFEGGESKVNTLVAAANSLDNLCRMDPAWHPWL
UniProt Q9NQT4: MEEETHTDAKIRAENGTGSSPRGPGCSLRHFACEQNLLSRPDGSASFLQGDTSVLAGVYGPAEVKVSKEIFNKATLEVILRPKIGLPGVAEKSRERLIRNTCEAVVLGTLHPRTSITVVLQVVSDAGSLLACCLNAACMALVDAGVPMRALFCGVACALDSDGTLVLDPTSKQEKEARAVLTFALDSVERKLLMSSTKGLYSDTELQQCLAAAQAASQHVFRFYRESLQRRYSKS

No constants are given. Whether binding was seen depends on the method and setting. Binding seen in cells or lysates may run through a third protein. Some entries that bind do so weakly or less than the wild type.

B1: RBM7 (protein, UniProt Q9Y580 1-266)
chain: MGAAAAEADRTLFVGNLETKVTEELLFELFHQAGPVIKVKIPKDKDGKPKQFAFVNFKHEVSVPYAMNLLNGIKLYGRPIKIQFRSGSSHAPQDVSLSYPQHHVGNSSPTSTSPSRYERTMDNMTSSAQIIQRSFSSPENFQRQAVMNSALRQMSYGGKFGSSPLDQSGFSPSVQSHSHSFNQSSSSQWRQGTPSSQRKVRMNSYPYLADRHYSREQRYTDHGSDHHYRGKRDDFFYEDRNHDDWSHDYDNRRDSSRDGKWRSSRH
B2: ZCCHC8 (protein, UniProt Q6NZY4 1-707)
chain: MAAEVYFGDLELFEPFDHPEESIPKPVHTRFKDDDGDEEDENGVGDAELRERLRQCEETIEQLRAENQELKRKLNILTRPSGILVNDTKLDGPILQILFMNNAISKQYHQEIEEFVSNLVKRFEEQQKNDVEKTSFNLLPQPSSIVLEEDHKVEESCAIKNNKEAFSVVGSVLYFTNFCLDKLGQPLLNENPQLSEGWEIPKYHQVFSHIVSLEGQEIQVKAKRPKPHCFNCGSEEHQMKDCPMPRNAARISEKRKEYMDACGEANNQNFQQRYHAEEVEERFGRFKPGVISEELQDALGVTDKSLPPFIYRMRQLGYPPGWLKEAELENSGLALYDGKDGTDGETEVGEIQQNKSVTYDLSKLVNYPGFNISTPRGIPDEWRIFGSIPMQACQQKDVFANYLTSNFQAPGVKSGNKRSSSHSSPGSPKKQKNESNSAGSPADMELDSDMEVPHGSQSSESFQFQPPLPPDTPPLPRGTPPPVFTPPLPKGTPPLTPSDSPQTRTASGAVDEDALTLEELEEQQRRIWAALEQAESVNSDSDVPVDTPLTGNSVASSPCPNELDLPVPEGKTSEKQTLDEPEVPEIFTKKSEAGHASSPDSEVTSLCQKEKAELAPVNTEGALLDNGSVVPNCDISNGGSQKLFPADTSPSTATKIHSPIPDMSKFATGITPFEFENMAESTGMYLRIRSLLKNSPRNQQKNKKASE
B3: PABPN1 (protein, UniProt Q86U42 1-306)
chain: MAAAAAAAAAAGAAGGRGSGPGRRRHLVPGAGGEAGEGAPGGAGDYGNGLESEELEPEELLLEPEPEPEPEEEPPRPRAPPGAPGPGPGSGAPGSQEEEEEPGLVEGDPGDGAIEDPELEAIKARVREMEEEAEKLKELQNEVEKQMNMSPPPGNAGPVIMSIEEKMEADARSIYVGNVDYGATAEELEAHFHGCGSVNRVTILCDKFSGHPKGFAYIEFSDKESVRTSLALDESLFRGRQIKVIPKRTNRPGISTTDRGFPRARYRARTTNYNSSRSRFYSGFNSRPRGRVYRGRARATSWYSPY

The first test deals with MYCN (human (endogenous in IMR-32 and IMR-5)) (UniProt P04198). The test is described as follows: co-IP.
For the molecule B1, the binding entry is reported as “binds”.
Still for that read-out and setting: in the case of B2 it was “binds”.

The next test has the same target. The test is described as follows: proximity ligation.
For the molecule MAX (from UniProt P61244 1-160), the binding entry is on record as “binds”.
Same read-out and setting: the result for TOP2B (from UniProt Q02880 1-1626) reads “binds”.
As for TRRAP (from UniProt Q9Y4A5 1-3859), the binding entry was “binds”.
In the case of “KAT5 (TIP60) (from UniProt Q92993 1-513)”, the binding result is reported as “binds”.

Another test shares this target. The test is described as follows: co-IP. This is another data set of the same source.
On to B1, for which the binding entry is reported as “binds”.
On the same count and under the same terms, in the case of B2 it was “binds”.

For another test the target is unchanged. The experiment in a line: co-IP. The source holds these as a separate data set.
As for MAX (from UniProt P61244 1-160), the binding entry is listed as “binds”.
Take ZFC3H1 (from UniProt O60293 1-1989): the binding entry was “no binding”.
Take TRRAP (from UniProt Q9Y4A5 1-3859): the binding result is reported as “binds”.
On the same count and under the same terms, the result for “EXOSC5 AID (endogenous EXOSC5 fused to an auxin-inducible degron) (from UniProt Q9NQT4 1-235)” reads “binds”; that for B1, “binds”; that for B3, “no binding”.
The same measure, in the same setting: the result for B2 reads “binds”.
